Data from PubChem BioAssay AID328 (DTP/NCI, 2004).
The list is a part of this screen's results and no random one: it is rich in T/C values a quarter to a half above the control, in often repeated tests (any T/C) and in doses without a T/C. Further doses and runs are listed elsewhere. T/C gives the treated animals as a percentage of the vehicle group. Some doses have a count of surviving animals in place of a T/C: the source holds a T/C of zero for them, seemingly a mark for toxic or unscored doses. Some survivor counts are full or nearly so, which does not show that the dose was tolerated: survival well below the control is almost never listed, so the zero probably covers shortened survival too. Counts of survivors are from the toxicity check (mostly the fifth day) where no day follows; animals may have died later. Schedules are NCI's codes, taken here to give the interval after Q, in days (D) or hours (H), and the number of doses after X. Some doses were run more than once; the results are listed from low to high. Some schedule codes hold Z or #, which are not explained here. Where survival is the endpoint, this PubChem deposit counts one and a half times the control or more as active, and values a quarter to a half above the control carry no call in these data; other NCI protocols may use other cut-offs. Some T/C values are followed by the survivors on the day toxicity was checked, most often the fifth; where none is given, no animal had died by that day.

System: BDF1 mice, P388 leukemia ip, median survival T/C
Assay: NCI In Vivo Anticancer Drug Screen. Data for tumor model P388 Leukemia (intraperitoneal) in B6D2F1 (BDF1) mice
Conditions: T/C endpoint: median survival time, higher T/C = longer survival
Description: The antitumor activity of compounds was measured in mice bearing transplantable tumors. Survival or tumor size were measured and the results are expressed as the measurement made in the treated group (T) divided by the measurement made in the vehicle treated control group (C). The tumor model used in this assay is P388 Leukemia (intraperitoneal) in B6D2F1 (BDF1) mice

[1] = dose: 150.0 mg/kg/injection, schedule: Q04DX003 (ip), vehicle: saline with Tween-80
[2] = dose: 200.0 mg/kg/injection, schedule: Q01DX009 (ip), vehicle: saline with Tween-80
[3] = dose: 400.0 mg/kg/injection, schedule: Q01DX009 (ip), vehicle: saline with Tween-80
[4] = dose: 50.0 mg/kg/injection, schedule: Q01DX009 (ip), vehicle: saline
[5] = dose: 200.0 mg/kg/injection, schedule: Q01DX009 (ip), vehicle: Klucel (hydroxypropylcellulose) (HPC)
[6] = dose: 400.0 mg/kg/injection, schedule: Q01DX009 (ip), vehicle: Klucel (hydroxypropylcellulose) (HPC)

COC(C(=O)C(O)C(C)O)C1Cc2cc3cc(OC4CC(OC(C)=O)C(OC5CC(O)C(OC)C(C)O5)C(C)O4)cc(O)c3c(O)c2C(=O)C1OC1CC(OC2CC(OC3CC(C)(O)C(OC(=O)C(C)C)C(C)O3)C(O)C(C)O2)C(O)C(C)O1 (centres undefined)
T/C (dose: 0.1 mg/kg/injection, schedule: Q01DX010 (ip), vehicle: saline): 145 % of control | T/C (dose: 0.2 mg/kg/injection, schedule: Q01DX010 (ip), vehicle: saline): 142 % of control | T/C (dose: 0.25 mg/kg/injection, schedule: Q01DX009 (ip), vehicle: other): 141 % of control | T/C (dose: 0.5 mg/kg/injection, schedule: Q01DX009 (ip), vehicle: other): 145 % of control | T/C (dose: 0.5 mg/kg/injection, schedule: Q01DX010 (ip), vehicle: saline): 145 % of control [5 of 6 alive] | T/C (dose: 0.8 mg/kg/injection, schedule: Q01DX010 (ip), vehicle: saline): 138 % of control | T/C (dose: 1.0 mg/kg/injection, schedule: Q01DX001 (ip), vehicle: carboxymethylcellulose (CMC)): 130 % of control | T/C (dose: 1.0 mg/kg/injection, schedule: Q01DX001 (ip), vehicle: other): 129 % of control | T/C (dose: 1.0 mg/kg/injection, schedule: Q01DX001 (ip), vehicle: saline): 125 and 133 % of control | T/C (dose: 1.0 mg/kg/injection, schedule: Q01DX009 (ip), vehicle: other): 145 % of control | T/C (dose: 2.0 mg/kg/injection, schedule: Q01DX001 (ip), vehicle: carboxymethylcellulose (CMC)): 140 % of control | T/C (dose: 2.0 mg/kg/injection, schedule: Q01DX001 (ip), vehicle: other): 141 % of control | T/C (dose: 2.0 mg/kg/injection, schedule: Q01DX001 (ip), vehicle: saline): 133 % of control | survivor count (dose: 2.0 mg/kg/injection, schedule: Q01DX009 (ip), vehicle: saline): 1 of 6 | survivor count (dose: 2.0 mg/kg/injection, schedule: Q01DX010 (ip), vehicle: saline): 5 of 6 | T/C (dose: 2.0 mg/kg/injection, schedule: Q## X008 (ip), vehicle: carboxymethylcellulose (CMC)): 140 % of control | survivor count (dose: 3.0 mg/kg/injection, schedule: Q01DX010 (ip), vehicle: saline): 0 of 6 and 2 of 6 | T/C (dose: 4.0 mg/kg/injection, schedule: Q01DX001 (ip), vehicle: other): 133 % of control [5 of 6 alive] | survivor count (dose: 4.0 mg/kg/injection, schedule: Q01DX001 (ip), vehicle: saline): 5 of 6 and 6 of 6 | survivor count (dose: 4.0 mg/kg/injection, schedule: Q01DX009 (ip), vehicle: saline): 3 of 6 | survivor count (dose: 4.0 mg/kg/injection, schedule: Q01DX010 (ip), vehicle: saline): 2 of 6, 5 of 6, 6 of 6 | survivor count (dose: 4.0 mg/kg/injection, schedule: Q## X003 (ip), vehicle: carboxymethylcellulose (CMC)): 1 of 10 | survivor count (dose: 6.0 mg/kg/injection, schedule: Q01DX010 (ip), vehicle: saline): 0 of 6 | survivor count (dose: 6.4 mg/kg/injection, schedule: Q01DX010 (ip), vehicle: saline): 0 of 6 | survivor count (dose: 8.0 mg/kg/injection, schedule: Q01DX001 (ip), vehicle: carboxymethylcellulose (CMC)): 8 of 10 | T/C (dose: 8.0 mg/kg/injection, schedule: Q01DX001 (ip), vehicle: other): 129 % of control | survivor count (dose: 8.0 mg/kg/injection, schedule: Q01DX001 (ip), vehicle: saline): 0 of 6 and 4 of 6 | survivor count (dose: 8.0 mg/kg/injection, schedule: Q01DX009 (ip), vehicle: saline): 1 of 6 | survivor count (dose: 8.0 mg/kg/injection, schedule: Q## X003 (ip), vehicle: carboxymethylcellulose (CMC)): 0 of 10 | survivor count (dose: 8.0 mg/kg/injection, schedule: Q## X008 (ip), vehicle: carboxymethylcellulose (CMC)): 0 of 10 | survivor count (dose: 8.0 mg/kg/injection, schedule: Q## X024 (ip), vehicle: carboxymethylcellulose (CMC)): 0 of 10 | survivor count (dose: 12.0 mg/kg/injection, schedule: Q01DX010 (ip), vehicle: saline): 0 of 6 | survivor count (dose: 16.0 mg/kg/injection, schedule: Q01DX001 (ip), vehicle: saline): 1 of 6 | T/C (dose: 100.0 micrograms/kg/injection, schedule: Q01DX010 (ip), vehicle: saline): 140 % of control | T/C (dose: 250.0 micrograms/kg/injection, schedule: Q01DX010 (ip), vehicle: saline): 140 % of control

COc1ccc(-c2csc(-c3ccccc3)n2)cc1N=Cc1ccc(N(CCCl)CCCl)c(OC)c1
T/C (dose: 9.0 mg/kg/injection, schedule: Q04DX003 (ip), vehicle: saline with Tween-80): 145 % of control | T/C [1]: 130 % of control | survivor count [1]: 5 of 6 | survivor count [2]: 5 of 6 | survivor count [3]: 0 of 6

CC(=O)O.CC(=O)O.[NH-]C(CCC(N)=O)C(=O)O.[NH-]C(CCC(N)=O)C(=O)O.[Ni+2] (centres undefined)
survivor count [4]: 4 of 6

COc1ccccc1CN1CCCN(Cc2ccccc2OC)C1c1ccc(N(CCCl)CCCl)cc1C
T/C (dose: 150.0 mg/kg/injection, schedule: Q01DX009 (ip), vehicle: Klucel (hydroxypropylcellulose) (HPC)): 136 % of control

COC(=O)[C@@]12OC[C@]34[C@H]([C@@H](O)[C@@H]1O)[C@@]1(C)CC(=O)C(O)=C(C)[C@@H]1C[C@H]3OC(=O)[C@H](OC(=O)/C=C(\C)C1(C)CO1)[C@@H]24 (some centres undefined)
T/C (dose: 0.12 mg/kg/injection, schedule: Q01DX009 (ip), vehicle: saline + alcohol): 125 % of control | T/C (dose: 0.25 mg/kg/injection, schedule: Q01DX009 (ip), vehicle: saline + alcohol): 132 % of control | survivor count (dose: 0.5 mg/kg/injection, schedule: Q01DX009 (ip), vehicle: saline + alcohol): 2 of 6 | survivor count (dose: 1.0 mg/kg/injection, schedule: Q01DX009 (ip), vehicle: saline + alcohol): 2 of 6 | survivor count (dose: 2.0 mg/kg/injection, schedule: Q01DX009 (ip), vehicle: saline + alcohol): 0 of 6

COc1ccc(O)c(/C=C/c2cc[n+](C)cc2)c1
survivor count (dose: 400.0 mg/kg/injection, schedule: Q04DX002 (ip), vehicle: saline with Tween-80): 4 of 6

O=C1CN(C(=O)CN2C(=O)c3ccccc3C2=O)C2(CCCCC2)O1
survivor count (dose: 200.0 mg/kg/injection, schedule: Q04DX003 (ip), vehicle: saline with Tween-80): 6 of 6

O=C1C=CC(=O)N1c1ccc(Br)cc1Cl
T/C (dose: 4.0 mg/kg/injection, schedule: Q04DX003 (ip), vehicle: saline): 133 % of control

C[C@H]1C(=O)O[C@@H]2CCN3CC=C(COC(=O)[C@](C)(O)[C@@]1(C)O)[C@H]23
T/C (dose: 25.0 mg/kg/injection, schedule: Q01DX009 (ip), vehicle: saline): 133 % of control | T/C [4]: 127 % of control

CCCCCc1ccc2oc(=O)c3ccc(C)cc3c2c1O
survivor count (dose: 12.5 mg/kg/injection, schedule: Q01DX009 (ip), vehicle: Klucel (hydroxypropylcellulose) (HPC)): 6 of 6 | survivor count (dose: 25.0 mg/kg/injection, schedule: Q01DX009 (ip), vehicle: Klucel (hydroxypropylcellulose) (HPC)): 6 of 6

CCCCCCCCC(=O)N1CC1
survivor count (dose: 400.0 mg/kg/injection, schedule: Q04DX003 (ip), vehicle: Klucel (hydroxypropylcellulose) (HPC)): 2 of 6

CCCN(CCC)CC(O)c1cc2cc(C(F)(F)F)cc(C(F)(F)F)c2c2ccccc12 (centres undefined)
survivor count [2]: 5 of 6

O=C(O)C(O)C(=O)O
survivor count (dose: 200.0 mg/kg/injection, schedule: Q04DX003 (ip), vehicle: saline): 4 of 6 | survivor count (dose: 400.0 mg/kg/injection, schedule: Q04DX003 (ip), vehicle: saline): 1 of 6

O=[N+]([O-])c1cc(-c2nc3ccccc3[nH]2)cc([N+](=O)[O-])c1
T/C [2]: 128 % of control

O=C1Nc2ccc(Br)cc2C1=Nc1ccc(Cl)cc1
survivor count [3]: 3 of 6

C[C@]12CCC(=O)C=C1CC[C@H]1[C@@H]3CC[C@@]4(OCC4=O)[C@@]3(C)C[C@H](O)[C@@]12F
survivor count [5]: 5 of 6 | survivor count [6]: 5 of 6

CN(C)c1ccc(C(=O)c2ccccc2)cc1
survivor count [5]: 6 of 6 | survivor count [6]: 5 of 6
